Data as given in PubChem BioAssay AID1053208 (Peter MacCallum Cancer Centre, 2014)
Shown is an unselected part of about 17,000 reagents. Of all reagents, 788 (4.7%) are marked active. 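Calls rest on z-score classes alone; an extra cut-off of viability at most 70% of control was not applied to them.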 Unmarked entries are inactive.

Test: 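Synthetic lethal interactions between gene loss and doxorubicin in osteosarcoma cells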 (primary screen)
Cell system: mouse osteosarcoma cells, early-passage culture from an engineered mouse model of fibroblastic bone tumour
Reagent: siRNA pool against mouse genes, 40 nM
Timing: about 120 h (48 h before drug, then 72 h with drug)
Conditions: doxorubicin 100 nM for 72 h, roughly 30-40% inhibitory dose
Read-out: 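Viability read as ATP luminescence after 72 h of 100 nM doxorubicin or none, duplicate wells averaged, scaled to non-targeting siRNA, then expressed as robust z-scores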
Scale: viability z-score with doxorubicin and doxorubicin viability vs non-targeting: higher = more viable cells under doxorubicin; viability z-score without drug: higher = more viable cells with knock-down alone; z-score of drug to no-drug ratio: higher = less drug sensitisation by knock-down
Active means: 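Called active if knock-down leaves viability unchanged without drug (z within -2 to 2) but lowers it with doxorubicin (z at or under -2)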

target gene,PubChem SID,combined z-score class,viability z-score with doxorubicin,viability z-score without drug,z-score of drug to no-drug ratio,doxorubicin viability vs non-targeting
Shisa4,SID152277559,no change with or without drug,-1.8,-0.84,-1.24,0.78
Sgce,SID152316579,no change with or without drug,-1.35,-1.85,0,0.82
Fam114a2,SID152314325,no change with or without drug,-1.12,1.18,-1.8,0.84
Sohlh2,SID152330236,high cell count without drug only,1.12,3.2,-0.79,1.04
Ano9,SID152302868,no change with or without drug,0,-0.34,0.34,0.94
Mei4,SID152296400,low cell count with doxorubicin only (active),-2.47,-0.51,-2.25,0.72
Gpt,SID152334694,no change with or without drug,-1.01,-1.18,-0.11,0.85
Plekha2,SID152341404,low cell count with doxorubicin only (active),-3.15,-1.18,-2.59,0.66
Samd13,SID152267400,no change with or without drug,-1.57,1.18,-2.25,0.8
Fscn3,SID152316923,no change with or without drug,-1.01,-1.52,0.11,0.85
Ece2,SID152314356,no change with or without drug,-0.45,-0.51,0,0.9
Ece2,SID152314675,no change with or without drug,-0.45,-0.17,-0.22,0.9
Ndc1,SID152264797,no change with or without drug,0.22,-0.84,1.01,0.96
Wnt2,SID152288797,high cell count without drug only,-0.22,2.19,-1.46,0.92
Glb1,SID152338422,no change with or without drug,0.9,-0.51,1.46,1.02

Individual results from the list.
For “combined z-score class”, Ndc1 [SID152264797] has no change with or without drug
Under “combined z-score class”, Gpt [SID152334694] has no change with or without drug

The results go on.
target gene,PubChem SID,combined z-score class,viability z-score with doxorubicin,viability z-score without drug,z-score of drug to no-drug ratio,doxorubicin viability vs non-targeting
Il11ra2,SID152313670,high cell count with doxorubicin only,2.02,0.84,1.57,1.12
Smarcd3,SID152294857,no change with or without drug,-0.34,0.17,-0.34,0.91
Or5aq6,SID152332774,high cell count without drug only,-0.22,2.53,-1.57,0.92
Usp4,SID152289948,low cell count with doxorubicin only (active),-2.7,-0.51,-2.47,0.7
Tspyl4,SID152322640,no change with or without drug,0.9,0.51,0.67,1.02
Gstcd,SID152299957,no change with or without drug,-0.56,-0.84,0.11,0.89
Leap2,SID152299015,no change with or without drug,0.67,0.51,0.45,1
Ryr2,SID152330970,no change with or without drug,-0.45,0.51,-0.67,0.9
Serpinb3c,SID152329155,no change with or without drug,1.8,1.35,1.01,1.1
Cpt1c,SID152259123,no change with or without drug,-0.34,-0.51,0.11,0.91
Nr2e1,SID152268385,no change with or without drug,0.9,1.85,-0.22,1.02
Tbx22,SID152298956,no change with or without drug,-0.22,0.51,-0.45,0.92
Spata9,SID152293966,no change with or without drug,1.46,1.52,0.56,1.07
Or11h4,SID152276476,no change with or without drug,-0.22,-0.67,0.34,0.92
Smc3,SID152335138,no change with or without drug,-1.12,0.17,-1.12,0.84
Slco5a1,SID152303745,no change with or without drug,0.9,-0.67,1.57,1.02
Cd99l2,SID152270504,no change with or without drug,-0.67,-1.35,0.34,0.88
Nkx2-5,SID152292604,no change with or without drug,0.67,-0.17,0.9,1
Tigar,SID152275711,low cell count with doxorubicin only (active),-2.02,-1.18,-1.35,0.76
